Assay results as given in a protein production outcome set (Wang et al. 2014).

Test: label from the status in PepcDB records

Sequence	protein production
MGTNKKLNSLYLASAALILFLILFSYTASAATTTCNVKGSNYQYWSDEQYPSIDLFGEEYVPLLEENDQIWEAHVDKLTRVVIDNESSYNLTGGESLDIGQGYSLQVKQIDVDGEKVWLEFYKDGQYVDDQILSTGSGDDTWNCTLDNIQGISDVVVLKAHVNQITQSATESVVQIDGIWLIDYENTTTLQIGDQLGNCTLSEIVNGTNESNLGSLVFEYVVTITDLGTLGGNYSNAEGINNKGQVVGTSQTDTGVEHAFLWQNGVMTDLETSGCDGYPKGINDNEQIVGFTFIEDDNAVHACLWENGVVTYLGVLPGGTESWPEGINNKGQVIGYSEGIGFEVHAFLWQNGTMTDIGPSDVEYSDARGINENGQVVGTSQDRYGPSRAFLWQNGVMTDLGTLGGSYSSARGINDKGQVVGVSQTDTGETHAFLWQNGVMIDLGTLGGSNSCAYGINNKRQIVGESETETGETHAFLWQNGVMTDFGTLSGISGSGAYEINENGQILGSNGTAVLWTITAPTNPVANFSASPTSGYAPLTVNFTDQSTGSPTSWNWDFGDGMNATDQNPTHTYSTAGNYTVTFTASNAAGNSTVTGIVSVTPPEDSEEIVSEIEVSDNRLREASPDTVYKSSSFIDVGSISGVGRYRDAIQFDLSEYNSDSQITNAVLSLYWYYPSGTTRPEDTVIEIYRPASAWNSSYVSWNKRDKNVAWTNEGGDWYDRNGVLQGSTPYATITIKGSSLPDNRYYELDVTDLVKEYVSGKYENTGLLIKARTESNNYIAFYSSDWTDENQKPKITVTEKEASLVTITGATDNRLREASPDSVYSDTSFIDVGSISGVGRYRDVMQFDLSECNSNSQVGNAVLSLYWYYPSGTTRPEDTVIEIYRPASAWNSSYVSWNKRDKNVAWTNEGGDWYDKNGVSQGSTPYATITIKGSSLPDNRYYELDVTDLVKEYVSGKYENTGLLIKARTENNNYIAFYSSDCGNESQVPKLSITKKTPVVTVNATVTDAMDNRLREASPSTVYQSSSFIDVGSINGVGRYRDVIRFDLSEYTGSVEVNNAALSLYWYYPSGTTRPEDTVIEIYRPASAWNSSYVSWNKKDKNVAWTNAGGDWYDRNGVLQGSTPYATMTIKGSSLPDNIYYELDVTELVKEYVSGKYENTGFLIKAHTESNNYIAFYSSDCGNESQVPKLQLVYS	failed
LVSLEQEVQEKYSQIQNQLQRRADLIPNLVETVKGYAAHEKEILEEIANARAKLIGAKTPQESAQADAELSSALSRLLAIAENYPNLKADANFRQLMDELAGTENRIAVARRDYNEAVKKYNTAIKKFPGVIFAKMFGFEEKQYFEAKPGAEEVPEVKF	not failed
